Test results as given in patent publication US9981964B2 (Agency for Science, Technology and Research, priority 2013, dated 2018).
For at least one compound, name, drawing or mass did not settle the structure.

System: mammalian PORCN
Test: PORCN-null HT1080 cells transfected with mammalian PORCN, WNT3A and STF reporter, luciferase
Assay type: cell-based
Conditions: STF luciferase, FIG. 1
Experimental: PORCN-null HT1080 cells were transfected with mammalian or Xenopus PORCN expression plasmids, along with WNT3A, STF reporter and mCherry as transfection control. 6 hours after transfection, cells were treated with the compounds or DMSO as indicated, and the following day assayed for luciferase. Xenopus PORCN was resistant to the inhibitory effects of compounds.

CC(C(=O)Nc1ccc(-c2ccccc2)nn1)N1CCCC2=C1C(=O)N(C)C2=O (stereo not shown) [Compound 13, 2-(6-methyl-5,7-dioxo-2,3,4,5,6,7-hexahydro-1H-pyrrolo[3,4-b]pyridin-1-yl)-N-(6-phenylpyridazin-3-yl)propanamide]
inhibition of the activity of mammalian porcupine: inhibition of the activity of mammalian porcupine
